Results from article PMC11809379.
These are yes or no findings as the source states them, for the method shown. Binding seen in cells or lysates may run through a third protein. Some results given as binding are weak or reduced against the parent protein; the word gives no strength. For some assays here: Tags and fused reporters may be left off the sequences shown.

Chains of the proteins cited; added tags and fusions are not shown.
UniProt Q9UPY5: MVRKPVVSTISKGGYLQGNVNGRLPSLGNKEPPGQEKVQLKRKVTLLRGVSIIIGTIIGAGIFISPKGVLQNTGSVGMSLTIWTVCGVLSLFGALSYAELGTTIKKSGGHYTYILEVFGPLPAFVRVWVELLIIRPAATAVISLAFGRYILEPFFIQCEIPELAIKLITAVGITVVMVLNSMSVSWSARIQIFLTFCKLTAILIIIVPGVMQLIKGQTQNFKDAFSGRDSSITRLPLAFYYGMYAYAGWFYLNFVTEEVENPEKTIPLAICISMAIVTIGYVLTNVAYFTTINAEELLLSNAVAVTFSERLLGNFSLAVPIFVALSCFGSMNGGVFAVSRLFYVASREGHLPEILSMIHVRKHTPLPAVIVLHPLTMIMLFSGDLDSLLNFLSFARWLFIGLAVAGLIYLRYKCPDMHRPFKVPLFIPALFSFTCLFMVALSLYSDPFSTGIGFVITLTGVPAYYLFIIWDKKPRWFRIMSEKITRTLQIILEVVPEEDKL

What was measured:
[1] = molecular target: Flag-tagged SLC7A11 (solute carrier family 7 member 11) (UniProt Q9UPY5); test: co-IP; HEK293T cells with expression vectors for Flag-tagged SLC7A11 and HA-tagged USP19 (legend: MIHA cells); cell extracts, immunoblot; which tag was precipitated is not stated
[2] = molecular target: SLC7A11 (solute carrier family 7 member 11), endogenous (human (endogenous in MIHA)) (UniProt Q9UPY5); test: co-IP; endogenous proteins in MIHA cells; immunoprecipitation with anti-SLC7A11, immunoblot

binding [1]	binding [2]	Binder
binds		HA-tagged USP19 (ubiquitin-specific protease 19) (enzyme, UniProt O94966 1-1318) MSGGASATGPRRGPPGLEDTTSKKKQKDRANQESKDGDPRKETGSRYVAQAGLEPLASGDPSASASHAAGITGSRHRTRLFFPSSSGSASTPQEEQTKEGACEDPHDLLATPTPELLLDWRQSAEEVIVKLRVGVGPLQLEDVDAAFTDTDCVVRFAGGQQWGGVFYAEIKSSCAKVQTRKGSLLHLTLPKKVPMLTWPSLLVEADEQLCIPPLNSQTCLLGSEENLAPLAGEKAVPPGNDPVSPAMVRSRNPGKDDCAKEEMAVAADAATLVDEPESMVNLAFVKNDSYEKGPDSVVVHVYVKEICRDTSRVLFREQDFTLIFQTRDGNFLRLHPGCGPHTTFRWQVKLRNLIEPEQCTFCFTASRIDICLRKRQSQRWGGLEAPAARVGGAKVAVPTGPTPLDSTPPGGAPHPLTGQEEARAVEKDKSKARSEDTGLDSVATRTPMEHVTPKPETHLASPKPTCMVPPMPHSPVSGDSVEEEEEEEKKVCLPGFTGLVNLGNTCFMNSVIQSLSNTRELRDFFHDRSFEAEINYNNPLGTGGRLAIGFAVLLRALWKGTHHAFQPSKLKAIVASKASQFTGYAQHDAQEFMAFLLDGLHEDLNRIQNKPYTETVDSDGRPDEVVAEEAWQRHKMRNDSFIVDLFQGQYKSKLVCPVCAKVSITFDPFLYLPVPLPQKQKVLPVFYFAREPHSKPIKFLVSVSKENSTASEVLDSLSQSVHVKPENLRLAEVIKNRFHRVFLPSHSLDTVSPSDTLLCFELLSSELAKERVVVLEVQQRPQVPSVPISKCAACQRKQQSEDEKLKRCTRCYRVGYCNQLCQKTHWPDHKGLCRPENIGYPFLVSVPASRLTYARLAQLLEGYARYSVSVFQPPFQPGRMALESQSPGCTTLLSTGSLEAGDSERDPIQPPELQLVTPMAEGDTGLPRVWAAPDRGPVPSTSGISSEMLASGPIEVGSLPAGERVSRPEAAVPGYQHPSEAMNAHTPQFFIYKIDSSNREQRLEDKGDTPLELGDDCSLALVWRNNERLQEFVLVASKELECAEDPGSAGEAARAGHFTLDQCLNLFTRPEVLAPEEAWYCPQCKQHREASKQLLLWRLPNVLIVQLKRFSFRSFIWRDKINDLVEFPVRNLDLSKFCIGQKEEQLPSYDLYAVINHYGGMIGGHYTACARLPNDRSSQRSDVGWRLFDDSTVTTVDESQVVTRYAYVLFYRRRNSPVERPPRAGHSEHHPDLGPAAEAAASQASRIWQELEAEEEPVPEGSGPLGPWGPQDWVGPLPRGPTTPDEGCLRYFVLGTVAALVALVLNVFYPLVSQSRWR
	binds	USP19 (ubiquitin-specific protease 19), endogenous (enzyme, UniProt O94966 1-1318) MSGGASATGPRRGPPGLEDTTSKKKQKDRANQESKDGDPRKETGSRYVAQAGLEPLASGDPSASASHAAGITGSRHRTRLFFPSSSGSASTPQEEQTKEGACEDPHDLLATPTPELLLDWRQSAEEVIVKLRVGVGPLQLEDVDAAFTDTDCVVRFAGGQQWGGVFYAEIKSSCAKVQTRKGSLLHLTLPKKVPMLTWPSLLVEADEQLCIPPLNSQTCLLGSEENLAPLAGEKAVPPGNDPVSPAMVRSRNPGKDDCAKEEMAVAADAATLVDEPESMVNLAFVKNDSYEKGPDSVVVHVYVKEICRDTSRVLFREQDFTLIFQTRDGNFLRLHPGCGPHTTFRWQVKLRNLIEPEQCTFCFTASRIDICLRKRQSQRWGGLEAPAARVGGAKVAVPTGPTPLDSTPPGGAPHPLTGQEEARAVEKDKSKARSEDTGLDSVATRTPMEHVTPKPETHLASPKPTCMVPPMPHSPVSGDSVEEEEEEEKKVCLPGFTGLVNLGNTCFMNSVIQSLSNTRELRDFFHDRSFEAEINYNNPLGTGGRLAIGFAVLLRALWKGTHHAFQPSKLKAIVASKASQFTGYAQHDAQEFMAFLLDGLHEDLNRIQNKPYTETVDSDGRPDEVVAEEAWQRHKMRNDSFIVDLFQGQYKSKLVCPVCAKVSITFDPFLYLPVPLPQKQKVLPVFYFAREPHSKPIKFLVSVSKENSTASEVLDSLSQSVHVKPENLRLAEVIKNRFHRVFLPSHSLDTVSPSDTLLCFELLSSELAKERVVVLEVQQRPQVPSVPISKCAACQRKQQSEDEKLKRCTRCYRVGYCNQLCQKTHWPDHKGLCRPENIGYPFLVSVPASRLTYARLAQLLEGYARYSVSVFQPPFQPGRMALESQSPGCTTLLSTGSLEAGDSERDPIQPPELQLVTPMAEGDTGLPRVWAAPDRGPVPSTSGISSEMLASGPIEVGSLPAGERVSRPEAAVPGYQHPSEAMNAHTPQFFIYKIDSSNREQRLEDKGDTPLELGDDCSLALVWRNNERLQEFVLVASKELECAEDPGSAGEAARAGHFTLDQCLNLFTRPEVLAPEEAWYCPQCKQHREASKQLLLWRLPNVLIVQLKRFSFRSFIWRDKINDLVEFPVRNLDLSKFCIGQKEEQLPSYDLYAVINHYGGMIGGHYTACARLPNDRSSQRSDVGWRLFDDSTVTTVDESQVVTRYAYVLFYRRRNSPVERPPRAGHSEHHPDLGPAAEAAASQASRIWQELEAEEEPVPEGSGPLGPWGPQDWVGPLPRGPTTPDEGCLRYFVLGTVAALVALVLNVFYPLVSQSRWR
